Four molecules from article PMC4312036 can be followed below.

Sequences of proteins named here, by UniProt entry; tags and fusion partners are left off.
UniProt Q39026: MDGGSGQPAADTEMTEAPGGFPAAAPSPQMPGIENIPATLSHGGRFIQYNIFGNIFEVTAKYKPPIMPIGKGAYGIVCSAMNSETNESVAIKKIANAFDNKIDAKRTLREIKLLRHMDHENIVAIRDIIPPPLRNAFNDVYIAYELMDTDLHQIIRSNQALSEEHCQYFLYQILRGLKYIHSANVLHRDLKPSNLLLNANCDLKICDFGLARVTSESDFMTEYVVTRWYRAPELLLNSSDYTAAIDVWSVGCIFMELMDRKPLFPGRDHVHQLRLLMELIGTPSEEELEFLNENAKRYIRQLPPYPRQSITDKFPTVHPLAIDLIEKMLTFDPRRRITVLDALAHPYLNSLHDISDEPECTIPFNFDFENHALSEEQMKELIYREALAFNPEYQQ

These are yes or no findings as the source states them, for the method shown. For some of these results: In cells and extracts the contact can be indirect. Some results given as binding are weak or reduced against the parent protein; the word gives no strength. Where a sequence is shown, tags or fusion partners need not be part of it.

One experiment concerns the target T1, AGB1-YFP^N (Arabidopsis) (UniProt P49177).
T1 sequence: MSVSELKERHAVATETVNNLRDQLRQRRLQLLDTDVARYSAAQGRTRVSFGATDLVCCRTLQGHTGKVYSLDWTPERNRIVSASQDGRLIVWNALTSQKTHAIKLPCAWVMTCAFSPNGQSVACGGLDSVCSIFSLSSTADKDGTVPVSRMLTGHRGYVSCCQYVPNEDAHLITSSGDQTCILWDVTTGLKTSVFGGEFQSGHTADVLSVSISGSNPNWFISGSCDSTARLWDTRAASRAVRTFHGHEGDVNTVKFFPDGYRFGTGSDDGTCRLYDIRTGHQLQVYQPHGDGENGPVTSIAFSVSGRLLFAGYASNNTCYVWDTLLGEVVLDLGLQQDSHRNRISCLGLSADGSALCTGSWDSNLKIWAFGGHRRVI
Briefly: split reporter; BiFC with split YFP (pSPYNE-AGB1 and pSPYCE-MPK6) in protoplasts of Arabidopsis Col-0; 23°C, 16-20 h; confocal microscopy.

For another experiment, the target named is T2, GST-AGB1 (Arabidopsis) (UniProt P49177).
T2 sequence: T1 sequence
Briefly: pull-down; GST fusion protein bound to glutathione sepharose 4B, incubated with purified His fusion protein in 20 mM HEPES pH 7.4, 1 mM EDTA, 5 mM MgCl2, 1 mM DTT, 0.1% Triton X-100, 1 mg/ml BSA, 1 mM PMSF, 4 h at 4°C; blot with HisProbe-HRP; both purified.

Another experiment concerns the target BD-MPK6 (Arabidopsis) (UniProt Q39026). Description: two-hybrid; direct test: AtMPK6 in pGBKT7 and AGB1 in pGADT7 co-transformed into yeast AH109; growth on SD/-Leu/-Trp/-His/-Ade, 3 d at 30°C.
A further experiment addresses MPK6-Myc (Arabidopsis) (UniProt Q39026). Briefly: co-IP; AGB1-Flag and MPK6-Myc transiently co-expressed in Arabidopsis protoplasts; lysate precipitated with anti-Myc agarose, 3 h at 4°C; blot with anti-Flag.

Take MPK6-YFP^C (from UniProt Q39026 1-395): the binding entry with AGB1-YFP^N (Arabidopsis) is “binds”.
For His-MPK6 (from UniProt Q39026 1-395), the binding result in the experiment with GST-AGB1 (Arabidopsis) is “binds”.

B1: AD-AGB1 (protein, UniProt P49177 1-377)
chain: T1 sequence
For B1, the binding entry with BD-MPK6 (Arabidopsis) is given as “binds”.

B2: AGB1-Flag (protein, UniProt P49177 1-377)
chain: T1 sequence
For the molecule B2, in the experiment with MPK6-Myc (Arabidopsis), the binding entry is reported as “binds”.
